Values of other authors, collected in patent publication US11905537B2, “Bifunction chemical epigenetic modifiers and methods of use” (The University of North Carolina at Chapel Hill, priority 2017, dated 2024).
Some entries share one result that the patent states for a list of compounds.

Details: Peart et al. 2005; cited from earlier work

Compound: C/C=C1\NC(=O)[C@H]2CSSCC/C=C/[C@H](CC(=O)N[C@H](C(C)C)C(=O)N2)OC(=O)[C@H](C(C)C)NC1=O [depsipeptide]
- genes with changed expression: up to 22%
